Experimental data taken from PubChem BioAssay AID493014 (National Center for Advancing Translational Sciences (NCATS), 2011).
The campaign covered roughly 340,000 compounds. About 170 (0.05%) were called active. The shares of active, inactive and inconclusive entries below differ from those in the screen. Calls follow the shape of the dose curve; as a rule, active = well fitted inhibition curve with a large enough effect in the signal ratio, with a control signal flat (not every such curve was filed as active); inconclusive = small, poorly fitted or top-dose-only effect, or effect the other way, or a change in a side signal; inactive = flat fitted curve, though single readings scatter; the % refers to the signal ratio. Potencies of inconclusive entries are doubtful fits and often do not repeat.

Experiment: qHTS Assay to Find Inhibitors of Chronic Active B-Cell Receptor Signaling;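 as to activity change, negative = inhibition: plate controls were basal doxycycline-induced cells for no effect and cells given 10 µM MG132 for full effect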
Conditions: ABC-DLBCL IkBa-CBG/CBR reporter, luminescence ratio (green luciferase fused to IkBa over red control in TMD8 lymphoma cells), 4 h; activity change, negative = inhibition: at 46.1 µM (top of the series) unless noted
Method in brief: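 TMD8 human ABC-DLBCL cells with doxycycline-inducible IκBα–green luciferase fusion and unfused red luciferase, in 0.5% FBS medium; compounds up to 46 uM, 4 h at 37C. Green/red luminescence ratio, filter-overlap corrected, fitted to concentration-response curves.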
Potency is read from the fitted curve at half-maximal effect.

| SMILES | Potency | activity change, negative = inhibition |
| --- | --- | --- |
| Cc1ccccc1OCC(=O)NNC(=O)Nc1ccc(Cl)cc1 | inconclusive: 3.55 µM [falling, partial curve, poor fit] | – |
| O=C1C=C(c2cccc(O)c2)C[C@@H](c2ccc(F)cc2)C1 | – | inconclusive: 3.49% |
| O=c1c2ccc(Cl)cc2[nH]c(=S)n1Cc1cccnc1 | – | inactive: 9.85% |
| C=C1CCC[C@]2(C)C[C@H]3OC(=O)C(CNC(C)CCCC(C)C)[C@H]3CC12 (stereo partly specified) | inconclusive: 14.1 µM [falling, partial curve, poor fit] | – |
| Cc1ccc(C2Nc3cccc4cccc(c34)N2)s1 | – | inactive: 10.5% |
| Cc1cc(C)c2cc(CN(Cc3ccc4c(c3)OCO4)Cc3nnnn3Cc3ccco3)c(=O)[nH]c2c1 | inconclusive: 20.6 µM [falling, single point] | – |
| O=C(CC1C(=O)NCCN1C(=O)Nc1ccccc1)Nc1ccc(F)cc1 (stereo unspecified) | – | inconclusive: -17.4% |
| COc1ccccc1C(=O)N/C(=C/c1ccco1)C(=O)Nc1cccc(C(=O)O)c1 | inconclusive: 5.62 µM [rising, single point] | – |
| O=C(C1=C(O)C(=O)N(CCCN2CCOCC2)C1c1ccncc1)c1cc2ccccc2o1 (stereo unspecified) | – | inconclusive: -123% |
| O=C(O)Cc1ccc(-n2cccc2)cc1 | – | inactive: -3.72% |
| Cn1c(=O)oc2cc(S(=O)(=O)N3CCCc4ccccc43)ccc21 | – | inactive: 6.36% |
| c1ccc2c(Cn3nnc4ccccc43)cccc2c1 | – | inconclusive: -0.642% |
| CCN(CC)S(=O)(=O)c1ccc(/C=C/C(=O)Nc2ccc(F)c(F)c2F)cc1 | – | inconclusive: 1.43% |
| COc1cc(/C=N/Nc2ccc([N+](=O)[O-])cc2S(=O)(=O)N2CCOCC2)cc(OC)c1OC | – | inconclusive: 2.41% |
| CCCN1CCC(NC(=O)Nc2ccc(Br)cc2)CC1 | – | inconclusive: 13.6% |
| O=C(CCSCc1ccccc1F)N1CCN(c2ccccn2)CC1 | – | inconclusive: 7.52% |
| CC[n+]1ccc(/C=C2\Sc3ccccc3N2CCCS(=O)(=O)[O-])c2ccccc21 | – | inconclusive: 2.27% |
| O=C(Nc1ccc(Br)cc1)Nn1cnnc1 | – | inconclusive: 4.84% |
| CN(C)CCOC(=O)C1(c2ccccc2)CCCC1 | – | inconclusive: 17.1% |
| O=C(CSc1ccc(-c2ccccc2)nn1)Nc1ccc2c(c1)OCCO2 | – | inconclusive: 0.701% |
| Cc1cccc(OCCNC(=O)c2cncc(Br)c2)c1 | – | inconclusive: 10.6% |

Sorted by count of non-hydrogen atoms (low to high): 15 of the compounds above

| SMILES | Potency | activity change, negative = inhibition |
| --- | --- | --- |
| O=C(O)Cc1ccc(-n2cccc2)cc1 | – | inactive: -3.72% |
| O=C(Nc1ccc(Br)cc1)Nn1cnnc1 | – | inconclusive: 4.84% |
| Cc1ccc(C2Nc3cccc4cccc(c34)N2)s1 | – | inactive: 10.5% |
| O=c1c2ccc(Cl)cc2[nH]c(=S)n1Cc1cccnc1 | – | inactive: 9.85% |
| O=C1C=C(c2cccc(O)c2)C[C@@H](c2ccc(F)cc2)C1 | – | inconclusive: 3.49% |
| Cc1ccccc1OCC(=O)NNC(=O)Nc1ccc(Cl)cc1 | inconclusive: 3.55 µM [falling, partial curve, poor fit] | – |
| Cn1c(=O)oc2cc(S(=O)(=O)N3CCCc4ccccc43)ccc21 | – | inactive: 6.36% |
| O=C(CCSCc1ccccc1F)N1CCN(c2ccccn2)CC1 | – | inconclusive: 7.52% |
| C=C1CCC[C@]2(C)C[C@H]3OC(=O)C(CNC(C)CCCC(C)C)[C@H]3CC12 (stereo partly specified) | inconclusive: 14.1 µM [falling, partial curve, poor fit] | – |
| O=C(CC1C(=O)NCCN1C(=O)Nc1ccccc1)Nc1ccc(F)cc1 (stereo unspecified) | – | inconclusive: -17.4% |
| CCN(CC)S(=O)(=O)c1ccc(/C=C/C(=O)Nc2ccc(F)c(F)c2F)cc1 | – | inconclusive: 1.43% |
| CC[n+]1ccc(/C=C2\Sc3ccccc3N2CCCS(=O)(=O)[O-])c2ccccc21 | – | inconclusive: 2.27% |
| COc1ccccc1C(=O)N/C(=C/c1ccco1)C(=O)Nc1cccc(C(=O)O)c1 | inconclusive: 5.62 µM [rising, single point] | – |
| COc1cc(/C=N/Nc2ccc([N+](=O)[O-])cc2S(=O)(=O)N2CCOCC2)cc(OC)c1OC | – | inconclusive: 2.41% |
| Cc1cc(C)c2cc(CN(Cc3ccc4c(c3)OCO4)Cc3nnnn3Cc3ccco3)c(=O)[nH]c2c1 | inconclusive: 20.6 µM [falling, single point] | – |

Additional structures follow:

| SMILES | Potency | activity change, negative = inhibition |
| --- | --- | --- |
| Cc1cc(=O)oc2cc(OC(C)C(=O)Nc3nccs3)ccc12 (stereo unspecified) | inconclusive: 18.4 µM [falling, partial curve] | – |
| O=C(Cc1ccc(Cl)cc1)NC1CC(=O)N(c2ccc3c(c2)OCCO3)C1 (stereo unspecified) | inconclusive: 4.47 µM [falling, partial curve, poor fit] | – |
| COc1cc(/C=C/C(=O)OCC(=O)N(C)Cc2ccccc2)ccc1O | inconclusive: 32.6 µM [falling, partial curve, poor fit] | – |
| Cc1ccc(NN2C(=O)C=C(c3ccc(Cl)cc3)C2=O)cc1 | – | inconclusive: -2.14% |
| N=c1ccn(Cc2cccc(Cl)c2)cc1 | – | inactive: -2.18% |
| O=C(Nc1ccncc1)c1c(F)cccc1F | – | inconclusive: 2.65% |
| COc1ccc(S(=O)(=O)CCC(=O)NCCc2ccc(C)cc2)cc1 | – | inconclusive: 7.31% |
| CSc1nc2ccc(NC(=O)c3ccc(F)c(F)c3)cc2s1 | – | inconclusive: 2.9% |
| CC(=O)Nc1ccc(N=c2cc([N+](=O)[O-])cc(Cl)n2O)cc1 | – | inconclusive: 4.06% |
| NNC(=O)C1COc2cc3ccccc3cc2O1 (stereo unspecified) | – | inactive: -2.2% |
| N#CC1=C(S)N(c2ccccc2)C(c2ccc(-c3cccc(Cl)c3)o2)NC1=O (stereo unspecified) | – | inconclusive: -12.1% |
| COc1cccc(NC(=O)Cn2c(SCC(=O)N3CCOCC3)nc3ccccc32)c1 | – | inconclusive: 17.4% |
| COc1ccc(-c2nn(-c3ccccc3)cc2/C=C2/SC(=S)N(CCC(=O)O)C2=O)c(C)c1 | – | inactive: 7.29% |
| CCc1noc(C)c1C(=O)OCC(=O)Nc1ccccc1SC | inconclusive: 16.4 µM [falling, partial curve] | – |
| CCCc1nnc(SCC(=O)Nc2ccc3c(c2)OCCO3)n1CCOC | – | inconclusive: 0.25% |
| C[C@]12c3[nH]c4ccc(Cl)cc4c3CCN1C(=O)[C@@H](CC(=O)NCC13CC4CC(CC(C4)C1)C3)C[C@@H]2C(=O)N1CCCCC1 | – | inconclusive: -3.39% |
| Cc1ccc(S(=O)(=O)c2nc(S(C)(=O)=O)sc2N2CCC(C)CC2)cc1 | – | inconclusive: 4.51% |
| COc1ccc(-c2nnc3sc(C(C)N4C(=O)c5ccccc5C4=O)nn23)cc1 (stereo unspecified) | inconclusive: 13 µM [falling, partial curve, poor fit] | – |
| O=C(C1CC(=O)N(c2ccc(F)cc2)C1)N1CCCCC1 (stereo unspecified) | – | inconclusive: 14.8% |
| Cc1cccc(-c2nc(=S)c3c(n2Cc2ccco2)CCCC3)c1 | – | inconclusive: -6.64% |
| O=C(NNC(=O)[C@@H]1CCCC[C@@H]1C(=O)O)c1cccs1 | – | inconclusive: -22.3% |

At a glance, two of the compounds above.

| SMILES | Potency | activity change, negative = inhibition |
| --- | --- | --- |
| N=c1ccn(Cc2cccc(Cl)c2)cc1 | – | inactive: -2.18% |
| O=C(Nc1ccncc1)c1c(F)cccc1F | – | inconclusive: 2.65% |

(continued)

| SMILES | Potency | activity change, negative = inhibition |
| --- | --- | --- |
| Cc1cccc2sc(NC(=O)CNS(=O)(=O)c3ccc(Br)s3)nc12 | – | inconclusive: 8.4% |
| CCCCC(=O)NC(=S)Nc1c(C)cc(Br)cc1C | – | inconclusive: -5.58% |
| c1ccc(Nc2ccc3c4c(cccc24)CC3)cc1 | – | inconclusive: 28.3% |
| O=C(C[C@H]1C/C=C\C[C@@H](Cc2ccc(F)cc2)C(=O)O[C@H](c2ccccc2)CNC1=O)N[C@@H](CO)Cc1ccccc1 | – | inactive: -0.843% |
| CC(=O)Nc1ccc(C(=O)OCc2ccc(F)cc2Cl)cc1 | – | inconclusive: 3.74% |
| CCn1c(C)nc2cc(C(=O)NNC(=S)Nc3ccc(C)cc3)ccc21 | – | inconclusive: -2.38% |
| N#Cc1cc([N+](=O)[O-])ccc1NC(=O)COC(=O)CCC1CCCCC1 | – | inactive: 4.42% |
| Cc1[nH]n(-c2ccccc2)c(=O)c1N=Nc1c(O)cc(S(=O)(=O)N(C)C)c2ccccc12 | inconclusive: 6.51 µM [falling, partial curve] | – |
| Cc1ccnc(Sc2ccc([N+](=O)[O-])cc2[N+](=O)[O-])n1 | – | inconclusive: 36.3% |
| COc1cccc(CN2CCN(CC(=O)Nc3ccccc3Cl)CC2)c1 | – | inactive: 1.47% |
| O=C(NN1C(=O)c2cc(Br)ccc2NC1c1cc(Br)cc(Br)c1O)c1ccncc1 (stereo unspecified) | inconclusive: 25.9 µM [falling, partial curve, poor fit] | – |
| CCOc1ccc(OCC(=O)NCc2n[nH]c(=O)c3ccccc23)cc1 | inconclusive: 20.6 µM [falling, single point] | – |
| CCn1nc(C(=O)O)c(=O)c2cc3c(cc21)OCO3 | – | inconclusive: -2.34% |
| CC(C)C(=O)Nc1ccccc1Cc1ccccc1 | – | inconclusive: 7.48% |
| N=c1c(C(=O)NC2CCCC2)cc2c(=O)n3ccccc3nc2n1Cc1ccccc1 | – | inactive: 0.656% |
| CCC(C)NC(=O)c1cc2cc3ccc(OC)cc3nc2s1 (stereo unspecified) | – | inconclusive: -26.5% |
| CN(C)c1nc(=S)nc(NCc2ccccc2)[nH]1 | – | inconclusive: 24.1% |
| C[C@H](NC(=O)C1CC(=O)N(c2ccc3c(c2)OCO3)C1)C(=O)NC1CCCCC1 (stereo partly specified) | – | inactive: 2.41% |
| CC(C)c1ccc(CNc2ccc([N+](=O)[O-])cn2)cc1 | inconclusive: 17.8 µM [rising, partial curve, poor fit] | – |
| COc1ccc(S(=O)(=O)Nc2ccc3c(c2)C(=O)N([C@H](C)CO)C[C@H](C)[C@@H](CN(C)C(=O)Nc2ccccc2)O3)cc1 | – | inconclusive: 0.768% |
| COc1ccc(NC(=O)C/C(C)=N/NC(=O)c2cnccn2)cc1Cl | inconclusive: 17.8 µM [falling, partial curve] | – |

| SMILES | Potency | activity change, negative = inhibition |
| --- | --- | --- |
| CCN(CC)c1ccc(-c2n[nH]c(=S)n2-c2ccccc2C)cc1 | inconclusive: 35.5 µM [falling, single point] | – |
| O=C1CCCC(=O)N1c1ccc(N2CCN(c3ccccc3)CC2)c([N+](=O)[O-])c1 | – | inactive: -0.219% |
| CC1Cc2ccccc2N1C(=O)COC(=O)C1=COCCO1 (stereo unspecified) | – | inconclusive: 0.685% |
| CCc1cccc(OCC(=O)Nc2ccc(S(=O)(=O)Nc3onc(C)c3C)cc2)c1 | – | inconclusive: -22.6% |
| CC(C)c1ccc(/C=C/C(=O)N2CCCCCC2)cc1 | – | inconclusive: 3.13% |
| CCN(CC)CCOC(=O)c1ccc(N/C=C(/C#N)c2nc(-c3cc4ccccc4oc3=O)cs2)cc1 | – | inactive: -1.14% |
| Cc1nc2c(C)cccn2c(=O)c1NC(=O)c1cccs1 | – | inconclusive: 0.525% |
| CNS(=O)(=O)c1ccc(NCC2COc3ccccc3O2)c([N+](=O)[O-])c1 (stereo unspecified) | – | inconclusive: -0.881% |
| COc1ccc2c(OC)cc(=O)n(C)c2c1 | inconclusive: 16.4 µM [falling, partial curve, poor fit] | – |
| O=C(c1cnccn1)N1CCc2c([nH]c3ccccc23)C1c1cccc(Cl)c1 (stereo unspecified) | – | inconclusive: -19% |
| Cc1cc(C)c(C)c(S(=O)(=O)Nc2ccccc2C(=O)NCCCn2ccnc2)c1C | – | inactive: 19.1% |
| O=C(Nc1ccc(-c2cn3ccccc3n2)cc1)c1ccco1 | inconclusive: 18.4 µM [falling, single point] | – |
| COc1ccc(C(=O)/C=C/Nc2ccc([N+](=O)[O-])cc2C)c(OC)c1 | – | inconclusive: 9.55% |
| COc1ccccc1C1(CCNC(C)c2cccs2)CCOC(C(C)C)C1 (stereo unspecified) | – | inconclusive: -20.4% |
| CCC(c1nnnn1CCOC)N(Cc1ccc(C)cc1)Cc1cc2cc(OC)ccc2[nH]c1=O (stereo unspecified) | – | inactive: 9.45% |
| CCOC(=O)C1CCCN(C(=O)C2CCN(S(=O)(=O)c3cccs3)CC2)C1 (stereo unspecified) | – | inconclusive: 4.27% |
| Cc1ccc2nc3ccc(N4CCCC4)nn3c(=O)c2c1 | – | inconclusive: -15% |
| Cc1cc(C)cc(N2C(=O)CC(Sc3ccccc3C(=O)O)C2=O)c1 (stereo unspecified) | – | inactive: -12.2% |
